Measured values from patent publication US20250163164A1.
These are yes or no findings as the source states them, for the method shown. Some binding calls cover weakened binding; strength is not graded here.

Amino acid sequences for entries named in this document (tags omitted). Residues count along the entry.
UniProt Q14627, residues 27-380: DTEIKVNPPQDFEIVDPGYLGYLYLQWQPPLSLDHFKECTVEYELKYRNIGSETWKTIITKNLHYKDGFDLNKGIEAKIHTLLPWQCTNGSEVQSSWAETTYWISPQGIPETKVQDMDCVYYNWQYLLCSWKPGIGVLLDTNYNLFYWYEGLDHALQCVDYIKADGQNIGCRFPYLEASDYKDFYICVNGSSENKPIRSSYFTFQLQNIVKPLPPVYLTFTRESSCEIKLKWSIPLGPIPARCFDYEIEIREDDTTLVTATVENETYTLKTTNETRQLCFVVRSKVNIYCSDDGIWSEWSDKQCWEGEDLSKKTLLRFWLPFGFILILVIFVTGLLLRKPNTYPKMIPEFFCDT

Target: human interleukin 13 receptor subunit alpha 2 (IL-13RA2) (human) (UniProt Q14627)
Assay: FACS on A375 cells

B1: 42E3C4 (antibody, V domains shown)
VH: EVKLVESGGGLVRPGGSLKISCAASGFTFSTYGMSWVRQTPEKRLEWVATISGGGSYTYYPDSVKGRFTISRDNAKNNLYLQMSSLRSEDTALYYCARRDLRSAMDYWGQGTSVTVSS
VL: DIVMTQSQKFMSTSVGDRVSVTCKASQNVDINVAWYQQKPGQSPKALIYSASFRYSGVPDRFTGSGSGTDFTLTISNVQSEDLAEYFCQQYNSYPLTFGGGTKLEIK
  binding: binds
